# Test results from the supplement of paper PMC12819154, “High-throughput peptide-centric local stability assay extends protein–ligand identification to membrane proteins, tissues and bacteria” (Nature Structural & Molecular Biology, 2025).
# Chains of the proteins cited; added tags and fusions are not shown. Lines headed by an entry give the natural chain unless they say otherwise; changes in a name come on top.
# UniProt Q8BTK5: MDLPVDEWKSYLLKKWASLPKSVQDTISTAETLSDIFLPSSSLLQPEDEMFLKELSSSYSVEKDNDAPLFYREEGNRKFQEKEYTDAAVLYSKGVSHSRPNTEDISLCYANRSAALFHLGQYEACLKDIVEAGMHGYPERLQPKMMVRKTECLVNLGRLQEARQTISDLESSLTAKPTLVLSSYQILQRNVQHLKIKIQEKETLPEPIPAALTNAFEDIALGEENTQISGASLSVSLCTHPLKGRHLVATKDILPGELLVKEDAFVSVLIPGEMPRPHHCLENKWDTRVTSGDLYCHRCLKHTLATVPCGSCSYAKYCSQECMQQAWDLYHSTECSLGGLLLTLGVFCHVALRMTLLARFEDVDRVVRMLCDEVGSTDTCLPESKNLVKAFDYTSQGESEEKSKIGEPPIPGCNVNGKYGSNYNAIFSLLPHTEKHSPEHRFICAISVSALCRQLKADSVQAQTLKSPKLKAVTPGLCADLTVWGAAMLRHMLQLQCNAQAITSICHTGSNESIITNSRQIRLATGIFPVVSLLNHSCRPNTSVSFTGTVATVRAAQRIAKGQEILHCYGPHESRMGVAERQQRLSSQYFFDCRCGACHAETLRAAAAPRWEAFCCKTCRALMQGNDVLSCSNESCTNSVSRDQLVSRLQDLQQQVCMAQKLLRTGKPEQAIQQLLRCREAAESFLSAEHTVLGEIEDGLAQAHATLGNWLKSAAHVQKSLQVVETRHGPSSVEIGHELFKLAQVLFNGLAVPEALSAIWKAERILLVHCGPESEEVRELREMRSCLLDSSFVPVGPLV
# UniProt Q8BUY9, whole entry: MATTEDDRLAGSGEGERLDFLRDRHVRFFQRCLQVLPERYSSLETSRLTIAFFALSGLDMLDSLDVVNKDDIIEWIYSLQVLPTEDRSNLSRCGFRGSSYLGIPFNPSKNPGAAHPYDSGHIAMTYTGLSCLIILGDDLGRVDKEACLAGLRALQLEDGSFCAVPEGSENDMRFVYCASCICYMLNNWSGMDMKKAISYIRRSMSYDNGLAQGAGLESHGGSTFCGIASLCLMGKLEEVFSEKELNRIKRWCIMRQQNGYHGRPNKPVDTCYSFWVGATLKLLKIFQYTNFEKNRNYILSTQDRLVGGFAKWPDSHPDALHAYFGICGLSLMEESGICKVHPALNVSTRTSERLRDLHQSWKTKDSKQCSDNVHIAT
# UniProt Q8BSM7: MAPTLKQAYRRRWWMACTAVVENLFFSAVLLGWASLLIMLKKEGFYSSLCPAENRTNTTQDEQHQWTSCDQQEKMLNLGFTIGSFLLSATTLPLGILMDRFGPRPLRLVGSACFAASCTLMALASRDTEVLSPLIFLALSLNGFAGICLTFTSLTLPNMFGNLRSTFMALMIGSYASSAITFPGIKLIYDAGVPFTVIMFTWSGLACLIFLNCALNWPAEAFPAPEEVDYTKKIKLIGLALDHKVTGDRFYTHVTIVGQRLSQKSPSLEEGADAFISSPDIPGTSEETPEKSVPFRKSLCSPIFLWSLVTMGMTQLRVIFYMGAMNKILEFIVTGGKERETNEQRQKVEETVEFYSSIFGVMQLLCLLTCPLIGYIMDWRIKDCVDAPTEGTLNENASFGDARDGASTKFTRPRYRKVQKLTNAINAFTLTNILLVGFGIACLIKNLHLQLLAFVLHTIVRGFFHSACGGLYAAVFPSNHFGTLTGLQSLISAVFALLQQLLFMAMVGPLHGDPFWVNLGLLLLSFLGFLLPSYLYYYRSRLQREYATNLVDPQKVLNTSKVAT
# UniProt Q8BIF2: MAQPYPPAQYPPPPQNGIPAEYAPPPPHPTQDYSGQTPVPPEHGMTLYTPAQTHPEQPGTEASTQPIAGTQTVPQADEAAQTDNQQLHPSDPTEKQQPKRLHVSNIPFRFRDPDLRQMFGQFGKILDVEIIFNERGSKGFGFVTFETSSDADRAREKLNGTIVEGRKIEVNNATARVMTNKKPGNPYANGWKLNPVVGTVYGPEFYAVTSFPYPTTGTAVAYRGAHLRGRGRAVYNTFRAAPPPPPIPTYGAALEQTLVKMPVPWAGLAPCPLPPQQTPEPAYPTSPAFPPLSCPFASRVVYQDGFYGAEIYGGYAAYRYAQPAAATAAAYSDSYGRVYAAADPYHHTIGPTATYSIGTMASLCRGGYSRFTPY
# UniProt Q8BP92: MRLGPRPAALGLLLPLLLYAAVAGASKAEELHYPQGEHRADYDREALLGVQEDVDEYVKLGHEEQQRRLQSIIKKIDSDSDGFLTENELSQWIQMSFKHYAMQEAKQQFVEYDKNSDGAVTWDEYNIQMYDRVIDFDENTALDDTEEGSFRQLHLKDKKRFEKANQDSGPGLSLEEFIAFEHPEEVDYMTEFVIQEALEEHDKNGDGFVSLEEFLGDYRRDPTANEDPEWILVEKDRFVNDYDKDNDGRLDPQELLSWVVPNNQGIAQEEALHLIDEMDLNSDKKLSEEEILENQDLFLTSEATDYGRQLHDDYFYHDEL
# UniProt Q8BP40: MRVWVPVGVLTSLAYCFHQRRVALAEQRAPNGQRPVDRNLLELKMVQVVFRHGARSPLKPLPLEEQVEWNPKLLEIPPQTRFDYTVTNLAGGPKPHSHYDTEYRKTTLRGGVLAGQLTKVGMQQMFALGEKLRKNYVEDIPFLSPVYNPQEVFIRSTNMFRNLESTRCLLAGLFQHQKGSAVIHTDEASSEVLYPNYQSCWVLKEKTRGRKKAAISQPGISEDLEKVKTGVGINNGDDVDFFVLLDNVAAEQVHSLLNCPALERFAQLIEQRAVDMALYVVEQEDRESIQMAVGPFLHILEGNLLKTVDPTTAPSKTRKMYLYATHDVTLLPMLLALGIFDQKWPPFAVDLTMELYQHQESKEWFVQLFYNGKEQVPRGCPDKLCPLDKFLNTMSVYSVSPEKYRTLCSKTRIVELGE
# UniProt Q8BRK9: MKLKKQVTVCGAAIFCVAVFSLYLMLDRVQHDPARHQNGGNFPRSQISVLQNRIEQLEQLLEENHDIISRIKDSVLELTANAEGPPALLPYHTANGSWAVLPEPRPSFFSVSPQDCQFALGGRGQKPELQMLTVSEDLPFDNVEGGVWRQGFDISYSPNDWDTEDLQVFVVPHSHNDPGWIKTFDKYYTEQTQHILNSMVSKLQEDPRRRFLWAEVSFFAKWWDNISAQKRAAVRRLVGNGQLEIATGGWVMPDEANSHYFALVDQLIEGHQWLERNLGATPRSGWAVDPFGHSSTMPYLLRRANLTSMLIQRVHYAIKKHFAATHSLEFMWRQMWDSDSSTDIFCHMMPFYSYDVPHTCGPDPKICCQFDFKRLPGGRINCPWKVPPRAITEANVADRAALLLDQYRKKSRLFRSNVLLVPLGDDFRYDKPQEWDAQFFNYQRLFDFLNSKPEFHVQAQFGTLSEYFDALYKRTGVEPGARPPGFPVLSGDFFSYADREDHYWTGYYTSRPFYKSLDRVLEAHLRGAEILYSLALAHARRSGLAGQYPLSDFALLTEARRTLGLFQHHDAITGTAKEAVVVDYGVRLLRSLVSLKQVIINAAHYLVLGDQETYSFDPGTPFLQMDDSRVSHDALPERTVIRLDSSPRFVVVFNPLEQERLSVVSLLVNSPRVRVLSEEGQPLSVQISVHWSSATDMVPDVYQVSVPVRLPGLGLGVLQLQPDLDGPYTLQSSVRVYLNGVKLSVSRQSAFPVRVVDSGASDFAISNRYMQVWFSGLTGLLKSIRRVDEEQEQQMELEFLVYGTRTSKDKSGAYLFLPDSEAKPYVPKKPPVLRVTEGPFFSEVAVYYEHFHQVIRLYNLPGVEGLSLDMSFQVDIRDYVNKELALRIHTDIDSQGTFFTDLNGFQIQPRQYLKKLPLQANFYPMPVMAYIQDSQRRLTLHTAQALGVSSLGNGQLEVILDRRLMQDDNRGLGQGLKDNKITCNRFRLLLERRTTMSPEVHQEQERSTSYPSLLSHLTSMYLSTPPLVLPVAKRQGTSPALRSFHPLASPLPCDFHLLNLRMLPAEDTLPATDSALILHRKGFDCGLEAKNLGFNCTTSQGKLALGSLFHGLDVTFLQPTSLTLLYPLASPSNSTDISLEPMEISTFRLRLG
# UniProt Q8BMF4: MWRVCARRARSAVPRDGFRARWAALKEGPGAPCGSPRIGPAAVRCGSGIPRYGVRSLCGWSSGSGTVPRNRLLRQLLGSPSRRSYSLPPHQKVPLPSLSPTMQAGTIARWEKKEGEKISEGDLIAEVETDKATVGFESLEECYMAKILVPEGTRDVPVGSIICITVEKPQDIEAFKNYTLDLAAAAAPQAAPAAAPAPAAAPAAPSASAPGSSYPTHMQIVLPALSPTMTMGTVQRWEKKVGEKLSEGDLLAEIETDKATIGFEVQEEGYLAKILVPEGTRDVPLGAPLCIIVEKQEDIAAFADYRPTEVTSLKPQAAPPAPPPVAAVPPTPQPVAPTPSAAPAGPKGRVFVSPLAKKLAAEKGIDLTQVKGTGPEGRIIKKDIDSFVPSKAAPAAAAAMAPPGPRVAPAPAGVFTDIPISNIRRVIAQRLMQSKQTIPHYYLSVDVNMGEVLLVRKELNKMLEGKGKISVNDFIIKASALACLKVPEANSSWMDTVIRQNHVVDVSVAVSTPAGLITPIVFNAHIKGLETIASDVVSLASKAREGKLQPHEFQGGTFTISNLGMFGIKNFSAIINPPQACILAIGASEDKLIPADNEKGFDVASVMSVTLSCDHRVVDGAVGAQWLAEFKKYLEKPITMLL
# UniProt Q8BRV5: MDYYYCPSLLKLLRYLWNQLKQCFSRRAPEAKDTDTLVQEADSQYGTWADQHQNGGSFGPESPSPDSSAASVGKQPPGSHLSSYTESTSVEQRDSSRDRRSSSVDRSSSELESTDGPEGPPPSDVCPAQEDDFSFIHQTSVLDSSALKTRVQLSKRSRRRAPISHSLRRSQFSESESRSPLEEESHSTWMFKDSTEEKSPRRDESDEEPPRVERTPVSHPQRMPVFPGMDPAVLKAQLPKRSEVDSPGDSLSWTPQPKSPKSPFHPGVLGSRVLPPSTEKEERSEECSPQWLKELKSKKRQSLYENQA
# UniProt Q8BJM3: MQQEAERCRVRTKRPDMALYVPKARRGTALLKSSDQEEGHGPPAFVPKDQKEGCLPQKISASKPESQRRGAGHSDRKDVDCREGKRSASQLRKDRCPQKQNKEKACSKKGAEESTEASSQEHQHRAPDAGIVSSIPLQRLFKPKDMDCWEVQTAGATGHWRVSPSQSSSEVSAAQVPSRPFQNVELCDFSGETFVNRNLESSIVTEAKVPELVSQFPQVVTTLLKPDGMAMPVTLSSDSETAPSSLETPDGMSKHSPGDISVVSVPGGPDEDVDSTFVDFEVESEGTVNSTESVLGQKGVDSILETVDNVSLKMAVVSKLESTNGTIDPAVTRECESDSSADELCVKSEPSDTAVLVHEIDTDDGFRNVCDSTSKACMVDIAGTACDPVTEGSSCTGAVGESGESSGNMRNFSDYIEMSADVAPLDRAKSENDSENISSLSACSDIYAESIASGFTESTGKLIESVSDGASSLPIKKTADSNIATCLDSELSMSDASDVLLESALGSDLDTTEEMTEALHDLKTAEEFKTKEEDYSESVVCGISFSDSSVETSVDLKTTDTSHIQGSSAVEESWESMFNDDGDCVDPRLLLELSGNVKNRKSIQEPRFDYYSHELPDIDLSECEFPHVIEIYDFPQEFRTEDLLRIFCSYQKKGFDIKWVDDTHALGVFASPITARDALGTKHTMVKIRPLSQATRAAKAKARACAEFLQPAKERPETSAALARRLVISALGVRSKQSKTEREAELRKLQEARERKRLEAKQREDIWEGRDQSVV
# UniProt Q8BMC4: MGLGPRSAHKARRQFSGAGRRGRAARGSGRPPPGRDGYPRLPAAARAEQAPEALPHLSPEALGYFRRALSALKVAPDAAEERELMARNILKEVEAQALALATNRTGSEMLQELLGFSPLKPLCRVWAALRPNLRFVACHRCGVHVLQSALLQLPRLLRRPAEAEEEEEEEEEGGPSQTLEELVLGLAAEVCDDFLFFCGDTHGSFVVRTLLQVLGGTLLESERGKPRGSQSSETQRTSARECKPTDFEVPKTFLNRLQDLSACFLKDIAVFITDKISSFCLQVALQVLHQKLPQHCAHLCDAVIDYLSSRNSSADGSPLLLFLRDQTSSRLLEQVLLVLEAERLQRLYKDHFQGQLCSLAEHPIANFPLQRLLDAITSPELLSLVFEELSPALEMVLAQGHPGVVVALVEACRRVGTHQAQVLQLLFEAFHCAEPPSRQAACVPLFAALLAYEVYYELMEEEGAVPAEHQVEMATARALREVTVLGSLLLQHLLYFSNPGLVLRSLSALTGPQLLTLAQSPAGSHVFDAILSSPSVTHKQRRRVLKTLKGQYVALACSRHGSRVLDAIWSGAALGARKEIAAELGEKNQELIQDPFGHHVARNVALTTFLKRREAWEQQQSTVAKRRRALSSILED
# The list shows a part of the results. Most entries show no effect beyond the scatter of the controls.
# Compound: CN[C@@H]1C[C@H]2O[C@@](C)([C@@H]1OC)n1c3ccccc3c3c4c(c5c6ccccc6n2c5c31)C(=O)NC4 [staurosporine]
# Test: log2 fold change of tryptic peptide abundance, ligand vs vehicle (limited proteolysis) (log2 ratio); higher = more trypsin-susceptible (destabilized)
# Conditions: ligand concentration: 20 uM; sample: mouse liver crude lysate; replicate design: treated separately
row,Target,log2 fold change
1,"UniProt Q8BTK5 (peptide sequence: HGPSSVEIGHELFK, peptide start residue: 728)",0.103
2,"UniProt Q8BP22 (peptide sequence: CTSGTGQISTCR, peptide start residue: 253)",0.527
3,"UniProt Q8BUY9 (peptide sequence: NYILSTQDR, peptide start residue: 296)",0.0817
4,"UniProt Q8BKT7 (peptide sequence: AEITMGDPHQQTLAR, peptide start residue: 176)",0.19
5,"UniProt Q8BSM7 (peptide sequence: LIGLALDHK, peptide start residue: 236)",-0.0789
6,"UniProt Q8BNX1 (peptide sequence: VLLSHQDLLR, peptide start residue: 62)",0.42
7,"UniProt Q8BMB0 (peptide sequence: TITVPVSGSPK, peptide start residue: 194)",0.295
8,"UniProt Q8BVA4 (peptide sequence: NSLSPATQR, peptide start residue: 547)",0.237
9,"UniProt Q8BSY0 (peptide sequence: KVYEEVLNVTPNDGFAK, peptide start residue: 458)",-0.322
10,"UniProt Q8BVF2 (peptide sequence: DYVQEVTK, peptide start residue: 102)",-0.391
11,"UniProt Q8BLY2 (peptide sequence: WLCAEVQR, peptide start residue: 24)",-0.372
12,"UniProt Q8BIF2 (peptide sequence: KIEVNNATAR, peptide start residue: 248)",0.339
13,"UniProt Q8BIW1 (peptide sequence: QLAIFCPHEALR, peptide start residue: 298)",-0.15
14,"UniProt Q8BTI9 (peptide sequence: LMDLLWK, peptide start residue: 816)",-0.189
15,"UniProt Q8BTT6 (peptide sequence: ANAQVLANNSR, peptide start residue: 337)",0.71
16,"UniProt Q8BRF7 (peptide sequence: KALTDAGCNLSPLQYIK, peptide start residue: 475)",0.309
17,"UniProt Q8BP92 (peptide sequence: HYAMQEAK, peptide start residue: 99)",-0.146
18,"UniProt Q8BKT3 (peptide sequence: MAEETSIR, peptide start residue: 191)",0.267

# A few values from the entries so far:
# Value of UniProt Q8BLY2 (peptide sequence: WLCAEVQR, peptide start residue: 24) under log2 fold change: -0.372
# Value of UniProt Q8BSM7 (peptide sequence: LIGLALDHK, peptide start residue: 236) under log2 fold change: -0.0789

# (further entries)

row,Target,log2 fold change
1,"UniProt Q8BP40 (peptide sequence: MVQVVFR, peptide start residue: 45)",0.158
2,"UniProt Q8BMG1 (peptide sequence: RLDGLPNSPIRK, peptide start residue: 90)",-0.333
3,"UniProt Q8BT60 (peptide sequence: VVLFEMEAR, peptide start residue: 140)",0.107
4,"UniProt Q8BMW7 (peptide sequence: TNDQSSHKL, peptide start residue: 408)",-0.337
5,"UniProt Q8BHY8 (peptide sequence: ILPDVNLGK, peptide start residue: 714)",-0.169
6,"UniProt Q8BRK9 (peptide sequence: GLGQGLK, peptide start residue: 971)",0.22
7,"UniProt Q8BML1 (peptide sequence: CSVCSATLR, peptide start residue: 1020)",0.502
8,"UniProt Q8BMF4 (peptide sequence: ILVPEGTR, peptide start residue: 147)",-0.364
9,"UniProt Q8BUL5 (peptide sequence: AEDQVYDAAVR, peptide start residue: 203)",0.304
10,"UniProt Q8BVE8 (peptide sequence: GIGTPPNTTPIK, peptide start residue: 107)",0.526
11,"UniProt Q8BRH4 (peptide sequence: GPLTTGTSDHFTKPSPR, peptide start residue: 1993)",0.449
12,"UniProt Q8BKI2 (peptide sequence: GASVPKPTGSK, peptide start residue: 496)",-0.306
13,"UniProt Q8BI84 (peptide sequence: TGNSSPASVER, peptide start residue: 250)",-0.516
14,"UniProt Q8BRV5 (peptide sequence: DSTEEKSPR, peptide start residue: 193)",-0.638
15,"UniProt Q8BJM3 (peptide sequence: DMDCWEVQTAGATGHWR, peptide start residue: 145)",0.577
16,"UniProt Q8BJQ2 (peptide sequence: ESQPLEENQR, peptide start residue: 289)",0.448
17,"UniProt Q8BMC4 (peptide sequence: NQELIQDPFGHHVAR, peptide start residue: 588)",0.337
